# Test results as given in PubChem BioAssay AID1487 (National Center for Advancing Translational Sciences (NCATS), 2009).
# The other results are listed elsewhere or left out. The main result of the screen is listed elsewhere. These columns were measured beside it and carry no call. Compounds called inactive in the main read-out are mostly missing here. Potencies come from curve fits of mixed quality, noted in brackets.
# Assay: qHTS Assay for Modulators of Lamin A Splicing
# Details: HeLa LMNA splicing GFP/RFP minigene ratio, 48 h
# How it was run: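 Read-out is the ratio of GFP to DsRed2 object intensity, acquired by 488 nm laser-scanning cytometry on HeLa lamin A-EGFP minigene reporter cells. Compound incubation 48 hrs at 37 °C in Opti-MEM with 2% FBS; DMSO 0.5% final.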
# [1] = measured here: RFP viability control channel
# [2] = measured here: GFP splicing reporter channel
structure (smiles),measurement,setting,value
CCn1c(NC(=O)c2cccc(Cn3cc(Cl)cn3)c2)nc2ccccc21,AC50,[1],"22.4 µM [rising, single point]"
Cc1ccc(N2CC(NC(=O)/C=C\c3ccc4c(c3)OCO4)CC2=O)cc1C (stereo not given),AC50,[1],"7.08 µM [rising, full curve, poor fit]"
CCN(CC)C(=O)n1cnc(-c2ccccc2)c1-c1ccccc1,AC50,[2],"4.47 µM [rising, partial curve]"
same,AC50,[1],"6.31 µM [rising, partial curve, poor fit]"
CCN(CC)C(=O)C1CCN(S(=O)(=O)c2ccc3c(c2)CCCN3C(C)=O)CC1,AC50,[2],"0.0355 µM [rising, full curve]"
same,AC50,[1],"0.0224 µM [rising, full curve, poor fit]"
COc1cccc(-c2cncnc2NCc2ccccc2)c1,AC50,[2],"12.6 µM [falling, partial curve, poor fit]"
same,AC50,[1],"3.55 µM [rising, single point]"
COC(=O)c1scc(-c2ccccc2)c1S(=O)(=O)Nc1ccccc1,AC50,[2],"1.78 µM [rising, full curve, poor fit]"
O=C(O)c1c(-c2ccccc2)c2oc3ccccc3c2[nH]c1=O,AC50,[2],"35.5 µM [rising, single point]"
same,AC50,[1],"20 µM [rising, single point]"
Cc1ccc(-n2ncc3c(=O)n(-c4ccc(C)c(C)c4)c(-c4ccco4)nc32)cc1,AC50,[1],"20 µM [rising, single point]"
N#CC1=C(N)Oc2c(ccc3cccnc23)C1c1cccnc1 (stereo not given),AC50,[1],"6.31 µM [rising, full curve]"
O=C(Nc1cccc(S(=O)(=O)N2CCCCC2)c1)c1c2c(nc3ccccc13)CCN(Cc1ccccc1)C2,AC50,[2],"35.5 µM [rising, single point]"
same,AC50,[1],"35.5 µM [rising, single point]"
O=C(c1cccc([N+](=O)[O-])c1)N1CCN(c2cccc(Cl)c2)CC1,AC50,[1],"31.6 µM [rising, single point]"
O=S(=O)(c1ccc2c(c1)OCCO2)N1CCC(n2nnc3cc(F)ccc32)CC1,AC50,[1],"31.6 µM [rising, single point]"
Cc1nn(C(=O)c2cccc([N+](=O)[O-])c2C)c(C)c1S(=O)(=O)N1CCOCC1,AC50,[2],"11.2 µM [falling, partial curve, poor fit]"
CCC(=O)Nc1ccc2c(c1)ncn2-c1ccccc1,AC50,[1],"4.47 µM [falling, full curve, poor fit]"
CC(=O)Nc1ccc(S(=O)(=O)NCC2CCC(C(=O)NCCc3ccccc3)CC2)cc1 (stereo not given),AC50,[1],"10 µM [falling, partial curve, poor fit]"
Cc1ccc(NNC(=O)C(=O)N2CCCCC2)cc1,AC50,[1],"35.5 µM [rising, single point]"
CCOC(=O)c1[nH]c2ccc(F)cc2c1NC(=O)CN1CCN(C/C=C/c2ccccc2)CC1,AC50,[2],"17.8 µM [rising, partial curve]"
same,AC50,[1],"12.6 µM [rising, partial curve]"
COc1ccccc1NC(=O)c1c(Nc2ccccc2F)sc(C(=O)Nc2cccc(Cl)c2)c1N,AC50,[1],"22.4 µM [rising, single point]"
O=C1CC(c2nc3ccccc3[nH]2)CN1c1cccc(C(F)(F)F)c1 (stereo not given),AC50,[1],"11.2 µM [rising, partial curve]"
CC(=O)N1N=C(c2ccc(C)cc2)CC1c1ccco1 (stereo not given),AC50,[1],"0.00794 µM [falling, full curve, poor fit]"
O=C(N/N=C/c1cn(Cc2ccccc2)c2ccccc12)c1cccnc1,AC50,[2],"2.24 µM [rising, full curve]"
same,AC50,[1],"7.08 µM [rising, partial curve]"
CC(C)Cn1c(SCC(=O)NCc2ccc(Cl)cc2)nnc1-c1cccc(S(=O)(=O)N2CCOCC2)c1,AC50,[1],"31.6 µM [rising, single point]"
CCOc1ccc(OCc2cccc(C(=O)N(CC)CC)c2)cc1,AC50,[2],"35.5 µM [falling, single point]"
same,AC50,[1],"11.2 µM [rising, partial curve, poor fit]"
O=C(COC(=O)c1ccc(F)cc1)NCCc1ccc(F)cc1,AC50,[2],"35.5 µM [falling, partial curve]"
same,AC50,[1],"20 µM [falling, partial curve]"
CC(=O)Nc1ccc(Br)c2ccccc12,AC50,[2],"0.02 µM [falling, partial curve, poor fit]"
COc1ccccc1N1CCN(C(=O)Cn2ncc3c([nH]c4ccccc43)c2=O)CC1,AC50,[1],"4.47 µM [falling, single point]"
O=C(C1CCN(c2nnc(-n3cccc3)s2)CC1)N1CCN(c2cccc(C(F)(F)F)c2)CC1,AC50,[2],"0.2 µM [rising, full curve]"
same,AC50,[1],"2.82 µM [rising, partial curve]"
Cc1cccc(Nc2nc(N)c([N+](=O)[O-])c(N3CCC(C)CC3)n2)c1,AC50,[2],"35.5 µM [rising, single point]"
same,AC50,[1],"22.4 µM [rising, single point]"
CCOC(=O)CSc1nc(C)c2ccc(C)cc2n1,AC50,[1],"35.5 µM [rising, single point]"
Cc1ccc(N(CC(O)COCc2ccco2)S(=O)(=O)c2ccc(C)cc2)cc1 (stereo not given),AC50,[2],"15.8 µM [falling, single point]"
same,AC50,[1],"12.6 µM [falling, partial curve, poor fit]"
COc1ccc(OC)c(S(=O)(=O)N2CCC(c3ccncc3)CC2)c1,AC50,[2],"0.0141 µM [rising, full curve]"
O=C(NC(Nc1ccccn1)C(Cl)(Cl)Cl)c1ccccc1 (stereo not given),AC50,[2],"22.4 µM [falling, single point]"
COc1cc(C(=O)Nc2cccc(-c3nc4ncccc4o3)c2C)cc(OC)c1OC,AC50,[1],"0.0251 µM [falling, full curve]"
COc1cccc(NC(=O)CSC2=Nc3ccccc3N=C(c3ccc(F)cc3)C2)c1,AC50,[1],"3.16 µM [rising, partial curve, poor fit]"
CCCC1CCC(c2ccc(C(=O)NN)cc2)CC1 (stereo not given),AC50,[1],"35.5 µM [rising, partial curve]"
O=C(CNC(=O)c1ccc(S(=O)(=O)N2CCCC2)cc1)N/N=C/c1c(Cl)cccc1Cl,AC50,[1],"35.5 µM [rising, single point]"
CCc1ccc(-n2c(SCc3ccccc3F)nc3[nH]ncc3c2=O)cc1,AC50,[2],"35.5 µM [falling, single point]"
same,AC50,[1],"35.5 µM [falling, single point]"
CCOC(=O)c1c(N)n(-c2cccc(OC)c2)c2nc3ccccc3nc12,AC50,[2],"4.47 µM [rising, partial curve]"
O=C(NCCNc1ccc(Cl)cc1[N+](=O)[O-])c1cccnc1,AC50,[2],"0.251 µM [rising, full curve, poor fit]"
O=C(Nc1ccn(Cc2ccccc2F)n1)c1ccc(COc2ccc(Cl)cc2Cl)o1,AC50,[2],"31.6 µM [rising, single point]"
same,AC50,[1],"31.6 µM [rising, single point]"
C[C@@]12CC[C@@H]3c4ccc(O)cc4CC[C@H]3[C@H]1CC[C@H]2O,AC50,[2],"0.00708 µM [falling, full curve]"
same,AC50,[1],"0.224 µM [falling, partial curve, poor fit]"
Cc1ccc(-c2nc3ccccc3s2)cc1NC(=S)NC(=O)c1cccc2ccccc12,AC50,[1],"0.708 µM [rising, full curve, poor fit]"
COc1ccc(NC(=S)NCCc2c[nH]c3ccccc23)cc1,AC50,[1],"35.5 µM [rising, single point]"
Cc1cc(C)cc(N(C(=O)c2sc(C)nc2C)C(C(=O)NC(C)(C)C)c2ccncc2)c1 (stereo not given),AC50,[2],"1.41 µM [rising, partial curve, poor fit]"
Cc1cc(N2CCCCC2)nc2ccc(NC(=O)c3ccc(Br)o3)cc12,AC50,[2],"22.4 µM [rising, partial curve, poor fit]"
same,AC50,[1],"31.6 µM [rising, single point]"
OCCN1CCN(CCCc2c3c(cc4c2CCC4)CCC3)CC1,AC50,[2],"35.5 µM [rising, single point]"
same,AC50,[1],"35.5 µM [rising, single point]"
O=C(NCCc1csc(-c2ccccc2)n1)c1ccc(Br)o1,AC50,[1],"11.2 µM [rising, partial curve]"
O=C(NC1CCCCC1)c1cc(Nc2cccc(C(F)(F)F)c2)nc2ccccc12,AC50,[1],"4.47 µM [falling, partial curve, poor fit]"
CN(c1ccccc1)c1nc(N2CCCC2)nc(-n2ccnc2)n1,AC50,[2],"25.1 µM [rising, single point]"
same,AC50,[1],"22.4 µM [rising, single point]"
Cc1ccc(C(=O)N(C)c2nnc(-c3ccncc3)s2)cc1,AC50,[2],"12.6 µM [falling, single point]"
same,AC50,[1],"15.8 µM [falling, partial curve, poor fit]"
CC(C)Oc1ccc(C2CC(=O)N(c3ccc(C(=O)O)cc3)C2=O)cc1 (stereo not given),AC50,[2],"0.0355 µM [rising, full curve, poor fit]"
COc1ccc(NC(=S)NN(C)C(=S)Nc2ccc(OC)cc2)cc1,AC50,[2],"12.6 µM [rising, partial curve]"
same,AC50,[1],"12.6 µM [rising, partial curve]"
C/C(=N\Nc1ccccc1Cl)c1ccc(-n2ccnc2)cc1,AC50,[2],"0.0891 µM [rising, full curve, poor fit]"
Cc1ccc2nc(/C(C#N)=C\c3ccc(Oc4ccc([N+](=O)[O-])cn4)cc3)[nH]c2c1,AC50,[2],"3.55 µM [rising, single point]"
COc1ccc(N(CC(=O)N/N=C/c2cc(Br)c(C)o2)S(=O)(=O)c2ccc(NC(C)=O)cc2)cc1,AC50,[2],"35.5 µM [falling, single point]"

# Two consecutive records out of the list so far, for reference:
structure (smiles),measurement,setting,value
Cc1nn(C(=O)c2cccc([N+](=O)[O-])c2C)c(C)c1S(=O)(=O)N1CCOCC1,AC50,[2],"11.2 µM [falling, partial curve, poor fit]"
CCC(=O)Nc1ccc2c(c1)ncn2-c1ccccc1,AC50,[1],"4.47 µM [falling, full curve, poor fit]"

# Rewritten bar-delimited: entries from further up
structure (smiles) | measurement | setting | value
COc1ccc(NC(=S)NN(C)C(=S)Nc2ccc(OC)cc2)cc1 | AC50 | [2] | 12.6 µM [rising, partial curve]
same | AC50 | [1] | 12.6 µM [rising, partial curve]
